# Laboratory results taken from PubChem BioAssay AID743255 (National Center for Advancing Translational Sciences (NCATS), 2014).
# Amino acid sequences for entries named in this document (tags omitted). A change or cut given only in a name is not applied to a line headed by its entry.
# UniProt O94782: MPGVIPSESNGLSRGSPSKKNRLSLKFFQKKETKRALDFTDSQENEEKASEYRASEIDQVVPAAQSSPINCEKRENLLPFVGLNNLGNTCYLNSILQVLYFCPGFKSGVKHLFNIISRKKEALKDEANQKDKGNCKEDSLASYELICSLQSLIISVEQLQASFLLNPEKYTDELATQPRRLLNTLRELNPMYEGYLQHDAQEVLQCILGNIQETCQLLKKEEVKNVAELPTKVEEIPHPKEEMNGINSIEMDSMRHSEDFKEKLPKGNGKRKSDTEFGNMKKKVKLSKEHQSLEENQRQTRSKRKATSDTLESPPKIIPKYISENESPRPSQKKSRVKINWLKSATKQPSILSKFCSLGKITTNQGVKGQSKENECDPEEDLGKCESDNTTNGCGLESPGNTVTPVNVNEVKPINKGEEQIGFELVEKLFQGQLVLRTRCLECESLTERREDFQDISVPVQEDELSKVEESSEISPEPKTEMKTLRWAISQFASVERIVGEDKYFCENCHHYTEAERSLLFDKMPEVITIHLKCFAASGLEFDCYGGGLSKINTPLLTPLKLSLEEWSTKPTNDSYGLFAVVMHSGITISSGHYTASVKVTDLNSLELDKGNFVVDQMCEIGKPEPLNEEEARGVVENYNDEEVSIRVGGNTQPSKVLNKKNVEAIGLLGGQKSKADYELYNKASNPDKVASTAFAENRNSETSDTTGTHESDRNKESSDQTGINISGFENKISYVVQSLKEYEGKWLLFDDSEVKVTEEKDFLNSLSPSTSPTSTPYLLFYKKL
# Values joined by “and” are separate entries in the source; they are usually repeats but may differ in a detail not shown here. Identical values can stand only once. In all, about 390,000 compounds went through this assay and about 910 (0.23%) were called active. Inconclusive results, whose numbers are uncertain, are shown with a selection of clear calls. Calls come from the whole dose curve; as a rule, active = well fitted inhibition curve with a large enough effect; inconclusive = small, poorly fitted or top-dose-only effect; inactive = no such curve, though single readings can be large or run the other way. Where the call is inconclusive, the potency comes from a doubtful curve fit.
# Target: Ubiquitin carboxyl-terminal hydrolase 1 (Homo sapiens) (UniProt O94782)
# Assay: Inhibitors of USP1/UAF1: Primary Screen; note: nearly all actives have a fitted effect of over 60% in size
# Conditions: recombinant USP1/UAF1, Ub-Rhodamine cleavage fluorescence; activity change, negative = inhibition: at 57.1 µM (top of the series)
# Procedure, shortened: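 USP1/UAF1 complex at 1 nM was preincubated with compound for 15 min at room temperature, then Ub-Rho substrate (150nM final) was added. Fluorescence (480/540 nm) was read kinetically, 6 reads every 60 seconds.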
# % is set by controls: 0 for no effect and ±100 for the full control effect; potency is the fitted concentration of half-maximal effect.
SMILES,Potency,"activity change, negative = inhibition"
Oc1ccc(-[n+]2c(-c3ccccc3)cc(-c3ccccc3)cc2-c2ccccc2)cc1,"inconclusive: 100 µM [inhibitor, partial curve, poor fit]",
O=C1NC(=O)N(Cc2ccco2)C(=O)/C1=C/c1ccc(-c2cccc([N+](=O)[O-])c2)o1,"inconclusive: 31.6 µM [inhibitor, single point]",
CCC(C)n1c(O)c(C=Nc2cccc(C(F)(F)F)c2)c(=O)[nH]c1=S (stereo not drawn),"inconclusive: 44.7 µM [inhibitor, partial curve]",
Cc1nc2ccccc2c2c1C(=O)N(Cc1cccnc1)C2=O,"inconclusive: 15.8 µM [inhibitor, partial curve]",
O=c1nc(/C=C/c2ccc(Cl)cc2Cl)cc(C(F)(F)F)[nH]1,"inconclusive: 39.8 µM [inhibitor, partial curve]",
CCS(=O)(=O)N1CCN(C2CCC(C)CC2)CC1 (stereo not drawn),"inconclusive: 1.41 µM [inhibitor, partial curve]",
O=[N+]([O-])c1cccc(O)c1,"inconclusive: 31.6 µM [inhibitor, single point]",
CCOC(=O)c1c(-c2ccc(OC)cc2)oc2ccc(OC(=O)N(C)C)cc12,"inconclusive: 44.7 µM [inhibitor, partial curve, poor fit]",
CCOC(=O)C1=Nc2ccccc2/C1=C\c1c(O)n(C)c(=O)n(C)c1=O,inactive,
Cc1ccc(Cn2nnnc2CN2CCC(n3nnc4cc(C(F)(F)F)ccc43)CC2)cc1,inactive,
COc1ccc(N2CCN(C(=O)C3CCCN(S(=O)(=O)c4ccc5c(c4)CCCN5C(C)=O)C3)CC2)cc1 (stereo not drawn),"inconclusive: 0.891 µM [inhibitor, full curve, poor fit]",
CCOC(=O)[C@@]1(C#N)[C@@H]2C=CC(C(N)=O)=CN2[C@@H](C(N)=O)[C@@H]1c1cccc(Cl)c1,"inconclusive: 39.8 µM [inhibitor, partial curve, poor fit]",
CCOC(=O)N1CCN(c2ncc3c(n2)CC(c2ccccc2O)CC3=O)CC1 (stereo not drawn),"inconclusive: 2 µM [inhibitor, full curve, poor fit]",
O=C1NC(=O)N(CCNc2ncc(C(F)(F)F)cc2Cl)C(=O)C1Cc1ccc(Cl)cc1 (stereo not drawn),"inconclusive: 7.08 µM [inhibitor, single point]",
c1ccc(C2NCc3ccccc3-n3cccc32)cc1 (stereo not drawn),"inconclusive: 4.47 µM [inhibitor, single point]",
CN(C)CC1Oc2ccccc2OC1(O)c1ccccc1 (stereo not drawn),inactive,
COc1ccc(CN2C(=O)NC(=O)/C(=C\c3ccco3)C2=O)cc1,"inconclusive: 44.7 µM [inhibitor, single point]",
COc1cc2c(cc1OC)-c1c(OC)c(OC)c(OC)c3ccnc(c13)C2=O,inactive,
Cc1nn(CC(C)C)c(Cl)c1C(=O)NC1CCCC1,"inconclusive: 0.251 µM [inhibitor, full curve, poor fit]",
CCOc1ccc(NC(=O)c2ccc(F)c(S(=O)(=O)NCc3ccc4c(c3)OCO4)c2)cc1,"inconclusive: 0.631 µM [inhibitor, full curve, poor fit]",

SMILES,Potency,"activity change, negative = inhibition"
O=C(c1cc2cc(Cl)ccc2[nH]1)N1CCC2(CC1)OCCO2,inactive,
Cc1cccc(N2CCc3c2nc2ccccc2c3N)c1,"inactive and inconclusive: 50.1 µM [inhibitor, partial curve, poor fit]",
Cc1ccc(-c2nn(Cc3ccccc3)cc2C=O)cc1,"inconclusive: 1.26 µM [inhibitor, full curve, poor fit]",
Cc1[nH]n(-c2ccccc2)c(=O)c1C(c1ccc([N+](=O)[O-])cc1)c1c(C)[nH]n(-c2ccccc2)c1=O,"inconclusive: 31.6 µM [inhibitor, partial curve]",
COC(=O)C1=C(c2ccc(OC(F)(F)F)cc2)C[C@@H]2CC[C@H]1N2C(=O)NCc1ccc(F)cc1,"inconclusive: 50.1 µM [inhibitor, partial curve, poor fit]",
CSc1nnc([C@@H](N)Cc2c[nH]c3ccccc23)o1,,inconclusive: -28.5% [inhibitor]
C=C(C=O)CC1CC(O)[C@]2(C)OC3C[C@@H]4OC5C[C@]6(C)O[C@]7(C)CCC8OC9C[C@]%10(C)OC(/C(C)=C\CO)C(O)CC%10OC9CC(C)C8OC7CC6O[C@]5(C)C/C=C\C4OC3CC2O1 (stereo partly drawn),"inconclusive: 7.94 µM [inhibitor, partial curve, poor fit]",
Cc1ccc(/C=C2\C(=O)NC(=S)N(c3ccc(F)cc3)C2=O)o1,"inconclusive: 31.6 µM [inhibitor, single point]",
C[C@@H]1C(=O)O[C@@H]2CC34[C@H]5C[C@@H](C(C)(C)C)C36[C@H](OC(=O)[C@@H]6O)OC4(C(=O)O5)[C@@]12O (stereo partly drawn),"inconclusive: 0.251 µM [inhibitor, full curve, poor fit]",
NP(=O)(OCCCc1ccccc1)Oc1ccccc1 (stereo not drawn),"inconclusive: 8.91 µM [inhibitor, partial curve, poor fit]",
CC(C)c1ccc(NC(=O)C2CCN(S(=O)(=O)c3ccc(Br)s3)CC2)cc1,"inconclusive: 0.794 µM [inhibitor, full curve, poor fit]",
O=c1[nH]cnc2nc(-c3ccc(N(CCCl)CCCl)cc3)[nH]c12,"inconclusive: 50.1 µM [inhibitor, partial curve, poor fit]",
COc1cccc(NC(=O)CCc2nc(-c3ccc(C(C)(C)C)cc3)no2)c1,"inconclusive: 70.8 µM [inhibitor, single point]",
COC(=O)c1ccc(NC(=O)c2cccn(Cc3ccccc3C)c2=O)cc1,inactive,
COc1ccc(-n2c(O)c(/C=C3\C=Nc4ccc(Br)cc43)c(=O)[nH]c2=O)cc1,inactive,
C[N+](C)(C)CCCCCCCCCC[N+](C)(C)C,"inconclusive: 0.224 µM [inhibitor, full curve, poor fit]",
CN(C)c1cccc2c(C#N)ccc(N(C)C)c12,"inconclusive: 56.2 µM [inhibitor, single point]",
CN(C)c1cccc(C(=O)Nc2nc3ccc(S(=O)(=O)NC(C)(C)C)cc3s2)c1,"inconclusive: 22.4 µM [inhibitor, partial curve, poor fit]",
CC(C)c1ccc(Cc2cn3cc(-c4cc5ccccc5oc4=O)nc3s2)cc1,"inconclusive: 141 µM [inhibitor, partial curve]",
COc1cccc(C(=O)c2cn(CC(=O)Nc3cc(Cl)c(OC)cc3OC)c3nc(C)ccc3c2=O)c1,"inconclusive: 44.7 µM [inhibitor, partial curve, poor fit]",

SMILES,Potency,"activity change, negative = inhibition"
Cc1nn(Cc2ccccc2)c(C)c1C=C1C(=O)NC(=S)NC1=O,inactive,
Cc1cc(C)cc(Oc2nc3ccccn3c(=O)c2/C=C(\C#N)c2nc3ccccc3s2)c1,"inconclusive: 31.6 µM [inhibitor, partial curve]",
COC(=O)C1=C(c2cccc(C#N)c2)C[C@@H]2CC[C@H]1N2C(=O)NCCOc1ccccc1Cl,"inconclusive: 7.94 µM [inhibitor, partial curve, poor fit]",
O=C(Nc1ccc(Br)cc1C(=O)c1ccccc1)c1ccccc1,"inconclusive: 17.8 µM [inhibitor, partial curve]",
Cc1ccc(C(C)C)c(OCCn2c(=O)oc3ccccc32)c1,"inconclusive: 50.1 µM [inhibitor, partial curve, poor fit]",
CN1CCN(c2ccc(/C=C3\C(=O)NC(=S)N(c4cccc(Br)c4)C3=O)o2)CC1,active: 31.6 µM,
O=P(Nc1cccc(F)c1)(Oc1ccccc1F)Oc1ccccc1F,inactive,
C[C@H]1CC2C3CC=C4C[C@@H](O)CC[C@]4(C)C3CC[C@]2(C)[C@H]1O (stereo partly drawn),"inconclusive: 39.8 µM [inhibitor, partial curve]",
O=C1NC(=O)N(c2ccc(Cl)cc2)C(=O)/C1=C\c1ccc(Sc2nc3ccccc3[nH]2)o1,"inconclusive: 44.7 µM [inhibitor, single point]",
CCOC(=O)c1ccc(NC(=O)c2sc3nc4c(cc3c2N)N2CCC4CC2)cc1,"inconclusive: 0.316 µM [inhibitor, full curve]",
C=C(COC(C)=O)CC1CC(O)[C@]2(C)OC3CC4OC5C[C@]6(C)O[C@]7(C)CCC8OC9C[C@]%10(C)OC%11C(C)=CC(=O)OC%11CC%10OC9C[C@@H](C)C8OC7CC6O[C@]5(C)C/C=C\C4OC3CC2O1 (stereo partly drawn),"inconclusive: 4.47 µM [inhibitor, partial curve]",
O=c1[nH]c(=O)n(Cc2ccccc2)c(O)c1C=NCCCO,"inconclusive: 44.7 µM [inhibitor, partial curve]",
Cc1cc([N+](=O)[O-])c2ccccc2[n+]1[O-],inactive,
O=C(NCc1ccccc1)N1CCc2c(sc3c2CCCC3)C1c1ccccc1 (stereo not drawn),"inconclusive: 5.01 µM [inhibitor, partial curve, poor fit]",
CCCC[N+]1(C)[C@@H]2CC(OC(=O)[C@H](CO)c3ccccc3)C[C@H]1[C@@H]1O[C@@H]12 (stereo partly drawn),"inconclusive: 8.91 µM [inhibitor, full curve, poor fit]",
CCN(CC)CCO,"inconclusive: 35.5 µM [inhibitor, single point]",
Cc1cc(C)cc(N2C(=O)/C(=C\c3ccc(N4CCN(C)CC4)o3)C(=O)NC2=S)c1,active: 31.6 µM,
NCCc1cc(O)c(O)cc1O,"inconclusive: 20 µM [inhibitor, single point] and inconclusive: 25.1 µM [inhibitor, partial curve]",
